We go through 5 substances from PMC4751435.

Chains of the proteins cited; added tags and fusions are not shown. Lines headed by an entry give the natural chain unless they say otherwise; changes in a name come on top. Residues count along the entry.
UniProt O75925: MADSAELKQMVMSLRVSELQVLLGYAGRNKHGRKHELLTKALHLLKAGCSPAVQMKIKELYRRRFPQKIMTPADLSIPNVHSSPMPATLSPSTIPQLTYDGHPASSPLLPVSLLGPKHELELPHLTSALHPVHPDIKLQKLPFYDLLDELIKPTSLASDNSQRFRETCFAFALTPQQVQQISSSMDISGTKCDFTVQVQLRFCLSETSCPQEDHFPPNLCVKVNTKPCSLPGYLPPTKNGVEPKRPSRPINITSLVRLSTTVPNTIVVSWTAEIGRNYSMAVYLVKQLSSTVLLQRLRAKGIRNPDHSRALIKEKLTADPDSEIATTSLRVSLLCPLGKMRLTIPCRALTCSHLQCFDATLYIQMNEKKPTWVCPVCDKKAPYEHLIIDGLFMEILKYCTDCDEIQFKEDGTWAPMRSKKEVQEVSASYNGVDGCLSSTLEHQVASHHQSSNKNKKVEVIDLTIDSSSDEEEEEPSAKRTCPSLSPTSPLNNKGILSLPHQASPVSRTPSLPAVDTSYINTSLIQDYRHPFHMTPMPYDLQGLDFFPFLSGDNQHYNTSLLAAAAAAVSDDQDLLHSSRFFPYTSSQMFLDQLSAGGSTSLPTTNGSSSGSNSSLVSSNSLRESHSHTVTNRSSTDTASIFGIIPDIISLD
UniProt O75928: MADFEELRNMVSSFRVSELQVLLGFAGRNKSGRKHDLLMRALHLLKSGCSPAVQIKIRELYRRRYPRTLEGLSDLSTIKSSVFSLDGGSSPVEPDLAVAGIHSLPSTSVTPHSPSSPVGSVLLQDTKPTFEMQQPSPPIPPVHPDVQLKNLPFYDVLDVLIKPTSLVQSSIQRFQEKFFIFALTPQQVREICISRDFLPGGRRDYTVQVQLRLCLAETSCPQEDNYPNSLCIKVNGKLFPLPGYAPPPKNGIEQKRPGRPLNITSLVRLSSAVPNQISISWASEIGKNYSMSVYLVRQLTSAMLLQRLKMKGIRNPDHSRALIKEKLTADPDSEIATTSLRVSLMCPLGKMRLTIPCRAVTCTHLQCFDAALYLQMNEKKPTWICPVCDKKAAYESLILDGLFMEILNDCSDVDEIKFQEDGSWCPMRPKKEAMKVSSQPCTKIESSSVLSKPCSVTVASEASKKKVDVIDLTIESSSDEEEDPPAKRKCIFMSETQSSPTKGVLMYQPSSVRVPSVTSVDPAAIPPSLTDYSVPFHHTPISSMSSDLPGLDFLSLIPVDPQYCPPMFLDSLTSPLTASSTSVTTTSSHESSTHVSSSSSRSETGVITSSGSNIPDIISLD
UniProt P61956: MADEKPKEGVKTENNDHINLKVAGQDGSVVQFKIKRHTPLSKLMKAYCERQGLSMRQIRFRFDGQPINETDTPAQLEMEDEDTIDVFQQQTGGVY
UniProt P63165, residues 1-97: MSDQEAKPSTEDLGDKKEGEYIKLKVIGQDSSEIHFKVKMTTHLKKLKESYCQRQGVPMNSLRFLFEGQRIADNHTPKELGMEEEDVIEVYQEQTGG
UniProt O15409: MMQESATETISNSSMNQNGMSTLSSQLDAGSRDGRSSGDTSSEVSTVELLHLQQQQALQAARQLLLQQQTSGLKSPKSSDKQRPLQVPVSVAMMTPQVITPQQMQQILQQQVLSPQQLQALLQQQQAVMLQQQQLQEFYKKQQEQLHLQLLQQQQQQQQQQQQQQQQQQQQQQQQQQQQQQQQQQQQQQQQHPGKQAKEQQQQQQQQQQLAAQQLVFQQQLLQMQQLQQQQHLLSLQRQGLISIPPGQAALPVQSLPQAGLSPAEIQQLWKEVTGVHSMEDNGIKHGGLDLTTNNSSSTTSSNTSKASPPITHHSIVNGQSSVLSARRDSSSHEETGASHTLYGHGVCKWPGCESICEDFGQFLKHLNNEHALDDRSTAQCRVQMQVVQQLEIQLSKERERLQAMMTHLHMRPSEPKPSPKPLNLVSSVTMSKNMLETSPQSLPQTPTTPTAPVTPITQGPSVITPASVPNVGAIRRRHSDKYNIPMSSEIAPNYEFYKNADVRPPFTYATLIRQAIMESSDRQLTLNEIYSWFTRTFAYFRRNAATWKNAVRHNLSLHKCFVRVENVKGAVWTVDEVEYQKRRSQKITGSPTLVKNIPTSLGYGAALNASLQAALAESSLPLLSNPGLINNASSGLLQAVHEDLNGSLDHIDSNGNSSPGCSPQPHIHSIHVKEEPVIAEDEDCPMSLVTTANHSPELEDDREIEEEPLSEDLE

These are yes or no findings as the source states them, for the method shown. Binding seen in cells or lysates may run through a third protein. Some entries that bind do so weakly or less than the wild type. For some of these results: Where a sequence is shown, tags or fusion partners need not be part of it.

Experiment in all cases: FRET or BRET; BRET in live HEK293 cells transfected with a Renilla luciferase fusion (donor) and a YFP fusion (acceptor); control donor a nuclear-targeted luciferase; mean corrected BRET ratios, n = 3
Assay [1] addresses YFP-PIAS1 (wild-type) (human) (UniProt O75925).
For a further assay, the target named is YFP-PIAS2 (human) (UniProt O75928).
Assay [2] addresses YFP-SUMO2 (wild-type, GG) (human) (UniProt P61956).
Assay [3] deals with YFP-SUMO1 (wild-type, GG) (human) (UniProt P63165).
Assay [4] has as its target YFP-FOXP2 (wild-type) (human) (UniProt O15409).
A further assay has as its target T1, YFP-PIAS4 (human) (UniProt Q8N2W9).
T1 sequence: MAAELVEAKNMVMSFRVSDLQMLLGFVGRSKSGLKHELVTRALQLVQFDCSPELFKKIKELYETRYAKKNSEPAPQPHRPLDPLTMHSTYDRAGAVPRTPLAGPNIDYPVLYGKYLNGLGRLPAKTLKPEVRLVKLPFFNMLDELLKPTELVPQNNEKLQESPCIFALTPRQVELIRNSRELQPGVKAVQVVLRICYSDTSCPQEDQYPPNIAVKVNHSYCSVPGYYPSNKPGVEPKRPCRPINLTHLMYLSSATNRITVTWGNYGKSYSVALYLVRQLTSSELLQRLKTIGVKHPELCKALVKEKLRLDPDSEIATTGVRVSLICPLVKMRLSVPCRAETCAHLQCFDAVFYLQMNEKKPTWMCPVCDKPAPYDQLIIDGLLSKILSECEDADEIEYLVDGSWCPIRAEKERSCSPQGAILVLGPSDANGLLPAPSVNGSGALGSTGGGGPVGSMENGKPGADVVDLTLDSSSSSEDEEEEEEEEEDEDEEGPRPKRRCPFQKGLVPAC

The target in a further assay is T2, YFP-PIAS3 (human) (UniProt Q9Y6X2).
T2 sequence: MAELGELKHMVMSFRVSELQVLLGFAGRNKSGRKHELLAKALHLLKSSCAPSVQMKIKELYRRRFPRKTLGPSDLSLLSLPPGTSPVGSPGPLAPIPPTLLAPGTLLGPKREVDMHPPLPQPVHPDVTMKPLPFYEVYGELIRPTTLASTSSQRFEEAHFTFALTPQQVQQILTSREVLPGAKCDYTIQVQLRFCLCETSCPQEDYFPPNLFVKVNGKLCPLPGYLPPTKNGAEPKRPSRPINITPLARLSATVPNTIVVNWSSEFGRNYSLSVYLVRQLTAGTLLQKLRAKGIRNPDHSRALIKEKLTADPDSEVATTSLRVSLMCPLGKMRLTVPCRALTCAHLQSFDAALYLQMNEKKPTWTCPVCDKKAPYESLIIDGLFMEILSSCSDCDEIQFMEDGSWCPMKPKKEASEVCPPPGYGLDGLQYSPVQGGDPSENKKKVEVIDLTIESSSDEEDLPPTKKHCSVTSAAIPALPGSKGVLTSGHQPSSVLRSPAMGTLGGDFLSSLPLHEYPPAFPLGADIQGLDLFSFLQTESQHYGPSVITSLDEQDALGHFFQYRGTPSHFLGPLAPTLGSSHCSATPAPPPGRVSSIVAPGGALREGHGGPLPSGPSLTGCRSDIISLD

For the substance “luciferase-FOXP2 (wild-type, full-length 1-715) (from UniProt O15409 1-715)”, the binding entry in assay [1] is on record as “binds”; in the assay with YFP-PIAS2 (human) it was “binds weakly”; in assay [2] it was “binds”; in assay [3], “binds”; in assay [4], “binds”; with YFP-PIAS4 (human), “binds”. For the same substance, the binding entry with YFP-PIAS3 (human) was “binds”.
As for “luciferase-FOXP2 K674R mutant (from UniProt O15409 1-715)”, the binding result in assay [2] and in assay [4] was “binds” throughout.
In the case of “luciferase-FOXP2 truncation 1-258 (from UniProt O15409 1-258) (domain or fragment)”, the binding entry in assay [1] is recorded as “binds”.
On to “luciferase-FOXP2 truncation 1-329 (from UniProt O15409 1-329) (domain or fragment)”, for which the binding entry in assay [1] is listed as “binds”.
For the substance “luciferase-FOXP2 truncation 1-487 (from UniProt O15409 1-487) (domain or fragment)”, the binding entry in assay [1] and in assay [4] was “binds” each time.
